Measurements: publication PMC12751062
Results are given in words; binding and its absence hold for the method and conditions named.

By UniProt entry, the sequences of proteins in these tests, tags left out. Residues count along the entry.
MET full intracellular domain (ICD: residues K956-S1390) (P08581, residues 956-1390): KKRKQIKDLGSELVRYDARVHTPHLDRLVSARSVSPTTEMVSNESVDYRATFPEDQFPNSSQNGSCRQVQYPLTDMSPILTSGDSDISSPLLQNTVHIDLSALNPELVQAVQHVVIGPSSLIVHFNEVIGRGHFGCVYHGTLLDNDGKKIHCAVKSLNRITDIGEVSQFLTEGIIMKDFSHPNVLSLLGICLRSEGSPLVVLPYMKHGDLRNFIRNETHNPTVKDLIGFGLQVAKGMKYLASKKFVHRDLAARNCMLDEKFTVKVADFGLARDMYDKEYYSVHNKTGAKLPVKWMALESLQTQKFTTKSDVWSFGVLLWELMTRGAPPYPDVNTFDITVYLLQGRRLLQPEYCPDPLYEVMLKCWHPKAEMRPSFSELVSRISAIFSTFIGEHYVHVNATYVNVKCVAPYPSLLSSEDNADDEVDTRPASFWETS
MET kinase domain with the C-tail (KD: residues Q1048-S1390) (P08581, residues 1048-1390): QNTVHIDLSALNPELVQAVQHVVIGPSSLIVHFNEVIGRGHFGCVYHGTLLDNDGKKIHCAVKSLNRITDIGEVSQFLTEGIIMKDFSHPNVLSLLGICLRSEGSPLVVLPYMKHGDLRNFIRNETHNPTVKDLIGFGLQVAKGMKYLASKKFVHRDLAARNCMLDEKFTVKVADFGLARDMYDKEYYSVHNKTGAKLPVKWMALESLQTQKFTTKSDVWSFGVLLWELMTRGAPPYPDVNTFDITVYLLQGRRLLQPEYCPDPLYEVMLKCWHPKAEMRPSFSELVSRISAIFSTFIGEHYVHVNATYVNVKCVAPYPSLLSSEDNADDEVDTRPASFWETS

Legend:
[1] = target: MET full intracellular domain (ICD: residues K956-S1390) (human) (UniProt P08581); assay: SEC-MALS; 100 µl of 20 µM dephosphorylated protein, Shodex KW-802.5 column, 4°C; both purified
[2] = target: MET kinase domain with the C-tail (KD: residues Q1048-S1390) (human) (UniProt P08581); assay: as above

Substance	binding [1]	binding [2]
MET full intracellular domain (ICD: residues K956-S1390) (from UniProt P08581 956-1390) (domain or fragment)	no binding (tested: 20 µM)	
MET kinase domain with the C-tail (KD: residues Q1048-S1390) (from UniProt P08581 1048-1390) (domain or fragment)		no binding (tested: 20 µM)
